Measured values: patent US20220298223A1 (KING S COLLEGE LONDON, published 2022)
No constants are given. Whether binding was seen depends on the method and setting. Some entries that bind do so weakly or less than the wild type.

Key:
[1] = biological target: soluble CD19-Fc fusion protein (UniProt P15391); test: flow cytometry, CAR T cells incubated with soluble CD19-Fc (0.5 and 1.0 ug), anti-human IgG detection
[2] = biological target: soluble CD19-Fc fusion protein (UniProt P15391); test: flow cytometry, transduced T cells incubated with CD19-Fc (0.5 and 1.0 ug), PE-conjugated anti-human IgG
[3] = biological target: T1, human CD19 expressed on LO68 tumor cells (human, UniProt P15391 20-556); test: z-Movi microfluidic chip, CAR T cells on a monolayer of CD19+ LO68 tumor cells, force ramp, percent bound T cells
T1 construct: whole, on cells; also called CD19+ LO68 tumor cells; CD19-engineered LO68 tumor cells
T1 sequence (looked up): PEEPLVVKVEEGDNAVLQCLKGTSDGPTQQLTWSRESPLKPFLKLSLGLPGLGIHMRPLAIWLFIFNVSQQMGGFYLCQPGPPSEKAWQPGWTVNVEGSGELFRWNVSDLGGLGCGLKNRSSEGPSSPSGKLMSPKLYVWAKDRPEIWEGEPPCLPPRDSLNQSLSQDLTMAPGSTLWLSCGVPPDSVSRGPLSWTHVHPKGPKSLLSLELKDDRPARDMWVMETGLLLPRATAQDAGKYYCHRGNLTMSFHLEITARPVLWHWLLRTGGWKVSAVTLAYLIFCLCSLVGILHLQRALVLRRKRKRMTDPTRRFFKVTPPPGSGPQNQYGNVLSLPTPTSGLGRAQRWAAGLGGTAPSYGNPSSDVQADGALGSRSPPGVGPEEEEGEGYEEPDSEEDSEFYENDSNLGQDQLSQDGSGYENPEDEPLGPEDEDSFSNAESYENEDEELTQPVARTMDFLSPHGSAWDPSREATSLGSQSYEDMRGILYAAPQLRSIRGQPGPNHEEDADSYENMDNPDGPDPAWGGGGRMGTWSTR
Description: CD19-engineered LO68 tumor cells were seeded in a z-Movi microfluidic chip and cultured for 16 hours. The next day, flow sorted CAR-T cells were serially flowed in the chips and incubated with the target cells for 5 minutes prior to initializing a 3-minute linear force ramp. Cell detachment was determined using post-experiment using image analysis techniques.
Increasing fluidic force was applied and the percentage of bound T-cells was determined (median, n=3). […] Data are presented as median rForce which is the relative force required to elicit cell detachment, calibrated to […] polystyrene beads. Since data were not normally distributed, they are presented as median rForce which is the relative force required to elicit cell detachment and calibrated to […] polystyrene beads. […] Data shown are mean±standard error (n=11 runs, 3 independent donors). […] For clarity, a single representative run for one healthy donor is plotted in which each dot represents a single cell.

B1: G02 second generation CAR (F-2 with the second glycine of FMC63 VH CDR3 substituted by alanine), expressed on human T cells (other)
chain: DIQMTQTTSSLSASLGDRVTISCRASQDISKYLNWYQQKPDGTVKLLIYHTSRLHSGVPSRFSGSGSGTDYSLTISNLEQEDIATYFCQQGNTLPYTFGGGTKLEITGGGGSGGGGSGGGGSEVKLQESGPGLVAPSQSLSVTCTVSGVSLPDYGVSWIRQPPRKGLEWLGVIWGSETTYYNSALKSRLTIIKDNSKSQVFLKMNSLQTDDTAIYYCAKHYYYGASYAMDYWGQGTSVTVSSAAAIEVEQKLISEEDLLDNEKSNGTIIHVKGKHLCPSPLFPGPSKPFWVLVVVGGVLACYSLLVTVAFIIFWVRSKRSRLLHSDYMNMTPRRPGPTRKHYQPYAPPRDFAAYRSRVKFSRSADAPAYQQGQNQLYNELNLGRREEYDVLDKRRGRDPEMGGKPRRKNPQEGLYNELQKDKMAEAYSEIGMKGERRRGKGHDGLYQGLSTATKDTYDALHMQALPPR
notes: CAR on transduced human T cells; also called FMC63(G02)
**Q.** Which binding [1] does the source give for B1 here?
**A.** binds

**Q.** And the binding [2]?
**A.** binds

B2: Y01 second generation CAR (F-2 with the first tyrosine of FMC63 VH CDR3 substituted by alanine), expressed on human T cells (other)
chain: DIQMTQTTSSLSASLGDRVTISCRASQDISKYLNWYQQKPDGTVKLLIYHTSRLHSGVPSRFSGSGSGTDYSLTISNLEQEDIATYFCQQGNTLPYTFGGGTKLEITGGGGSGGGGSGGGGSEVKLQESGPGLVAPSQSLSVTCTVSGVSLPDYGVSWIRQPPRKGLEWLGVIWGSETTYYNSALKSRLTIIKDNSKSQVFLKMNSLQTDDTAIYYCAKHAYYGGSYAMDYWGQGTSVTVSSAAAIEVEQKLISEEDLLDNEKSNGTIIHVKGKHLCPSPLFPGPSKPFWVLVVVGGVLACYSLLVTVAFIIFWVRSKRSRLLHSDYMNMTPRRPGPTRKHYQPYAPPRDFAAYRSRVKFSRSADAPAYQQGQNQLYNELNLGRREEYDVLDKRRGRDPEMGGKPRRKNPQEGLYNELQKDKMAEAYSEIGMKGERRRGKGHDGLYQGLSTATKDTYDALHMQALPPR
notes: CAR on transduced human T cells; also called FMC63(Y01)
**Q.** B2 was tested. Which binding [2] did it give?
**A.** binds

B3: Y03 second generation CAR (F-2 with the third tyrosine of FMC63 VH CDR3 substituted by alanine), expressed on human T cells (other)
chain: DIQMTQTTSSLSASLGDRVTISCRASQDISKYLNWYQQKPDGTVKLLIYHTSRLHSGVPSRFSGSGSGTDYSLTISNLEQEDIATYFCQQGNTLPYTFGGGTKLEITGGGGSGGGGSGGGGSEVKLQESGPGLVAPSQSLSVTCTVSGVSLPDYGVSWIRQPPRKGLEWLGVIWGSETTYYNSALKSRLTIIKDNSKSQVFLKMNSLQTDDTAIYYCAKHYYAGGSYAMDYWGQGTSVTVSSAAAIEVEQKLISEEDLLDNEKSNGTIIHVKGKHLCPSPLFPGPSKPFWVLVVVGGVLACYSLLVTVAFIIFWVRSKRSRLLHSDYMNMTPRRPGPTRKHYQPYAPPRDFAAYRSRVKFSRSADAPAYQQGQNQLYNELNLGRREEYDVLDKRRGRDPEMGGKPRRKNPQEGLYNELQKDKMAEAYSEIGMKGERRRGKGHDGLYQGLSTATKDTYDALHMQALPPR
notes: CAR on transduced human T cells; also called FMC63(Y03)
**Q.** With B3 as the binder, how does the binding [2] read?
**A.** binds

B4: Y04 second generation CAR (F-2 with the fourth tyrosine of FMC63 VH CDR3 substituted by alanine), expressed on human T cells (other)
chain: DIQMTQTTSSLSASLGDRVTISCRASQDISKYLNWYQQKPDGTVKLLIYHTSRLHSGVPSRFSGSGSGTDYSLTISNLEQEDIATYFCQQGNTLPYTFGGGTKLEITGGGGSGGGGSGGGGSEVKLQESGPGLVAPSQSLSVTCTVSGVSLPDYGVSWIRQPPRKGLEWLGVIWGSETTYYNSALKSRLTIIKDNSKSQVFLKMNSLQTDDTAIYYCAKHYYYGGSAAMDYWGQGTSVTVSSAAAIEVEQKLISEEDLLDNEKSNGTIIHVKGKHLCPSPLFPGPSKPFWVLVVVGGVLACYSLLVTVAFIIFWVRSKRSRLLHSDYMNMTPRRPGPTRKHYQPYAPPRDFAAYRSRVKFSRSADAPAYQQGQNQLYNELNLGRREEYDVLDKRRGRDPEMGGKPRRKNPQEGLYNELQKDKMAEAYSEIGMKGERRRGKGHDGLYQGLSTATKDTYDALHMQALPPR
notes: CAR on transduced human T cells; also called FMC63(Y04)
**Q.** What does the source list for B4?
**A.** binding [1]: binds; binding [2]: binds

B5: Y05 second generation CAR (F-2 with the fifth tyrosine of FMC63 VH CDR3 substituted by alanine), expressed on human T cells (protein)
chain: DIQMTQTTSSLSASLGDRVTISCRASQDISKYLNWYQQKPDGTVKLLIYHTSRLHSGVPSRFSGSGSGTDYSLTISNLEQEDIATYFCQQGNTLPYTFGGGTKLEITGGGGSGGGGSGGGGSEVKLQESGPGLVAPSQSLSVTCTVSGVSLPDYGVSWIRQPPRKGLEWLGVIWGSETTYYNSALKSRLTIIKDNSKSQVFLKMNSLQTDDTAIYYCAKHYYYGGSYAMDAWGQGTSVTVSSAAAIEVEQKLISEEDLLDNEKSNGTIIHVKGKHLCPSPLFPGPSKPFWVLVVVGGVLACYSLLVTVAFIIFWVRSKRSRLLHSDYMNMTPRRPGPTRKHYQPYAPPRDFAAYRSRVKFSRSADAPAYQQGQNQLYNELNLGRREEYDVLDKRRGRDPEMGGKPRRKNPQEGLYNELQKDKMAEAYSEIGMKGERRRGKGHDGLYQGLSTATKDTYDALHMQALPPR
**Q.** What does the source list for B5?
**A.** binding [3]: binds; binding [1]: binds; binding [2]: binds
